Measurements published in PubChem BioAssay AID1508600 (Functional Genomics Laboratory (NCATS/FGL), 2020).
Among all 53,000 sequences or so, about 3,700 (7%) were called active.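 Rule for the calls: active = gene knockdowns whose robust z-score for IL-1 alpha signal is at least 2 or at most -2, so actives lie on both sides; inactive = the rest.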 This is one part of the list.

Test: Components of the Cytosolic LPS Sensing Pathway: Gene Identification via Genome-wide siRNA Screen;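 note: robust z of the log signal after scaling to non-targeting control siRNA wells of the plate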
Conditions: RAW264.7 macrophages, IL-1a HTRF, actives lie on both sides, screened at 100 nM (by protocol), cells primed 5 h with Pam3CSK4 first
Method in brief: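 RAW264.7; siRNA 100 nM final, RNAiMAX, 48h 37 degrees C; Pam3CSK4 5 h; LipidA + TransIT-TKO 24 h; IL-1a HTRF; CellTiter-Glo viability; robust z vs negative-control median.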

z-score, inactive:
GAUGCUCUCUGCUCUGAGATT against C030016D13Rik -0.0555, GGAUGCCUGAGUGCUACAUTT against Lsm4 -0.837, CGACCACAGAUAUAAAUUUTT against Tbx5 -0.344, GGUGUCCAGCAUUUACAUCTT against Agtr2 0.778, GGGAGCAUCAUGUGAAGAATT against Dnajc5b 0.173, GGGAACUUUAGCUUAAAUUTT against Lypd6 0.135, GCACAGGUAAUUUGUAAUGTT against Btbd3 -0.488, CCGUGUCAUCUUGAAAAUUTT against Mtrr -0.782, GGAAAAGGAGGUGGUACUGTT against Acan 0.743, GCAGUCUUUUGGAUAGGUUTT against Ccni 0.86, GUCACUAUUAAGACACUUATT against Nudcd3 0.157, CGCGAGAAGACGAAUUCUCTT against Pknox1 1.29, GCUCUCUCUCAUUGAUCUCTT against Olfr697 -1.63, GGUGAAAGCUGUUAUCGAATT against Il25 0.359, GGAAGUGGACAUCACCAUGTT against Sh3bgrl2 -1.14, GGAAGGUCUGCUAUAAGUATT against Ifi30 0.904, GGGCCAAAGGAAACAGCACTT against Slc24a5 -0.854, GCUUCGAUCGCUGGAAUGUTT against Dctn4 1.33, CCAGGAUCCUUCUAAGUGCTT against Tes -0.594, CCAUCAUCCCUAGAUACCCTT against Muc20 -1.31, GGCCAAGAAACAUGCCCUATT against Pbx2 0.168, CCCUGAUUCAUACGACUGATT against Ctdp1 -0.21, GGUGUUUACUUCCUCAGAATT against Slc9b2 -0.373, GGAACAGAACCACUACCUGTT against Slc39a5 1.39, GGCCGAAACUUCGUUUAUATT against Med17 -1.95, GGUGUAUGGACCAUUUUAUTT against Tcp11l2 0.221, GGACAAGUUUCAGUGACCCTT against Zdhhc9 -1.87, GGAACAGGCCACCAUUGAATT against Mrps7 1.44, GGCUACGAGUCCUCUGAAGTT against Saraf -1.71, GGAGACACUCGUCCUUUAUTT against Cyp20a1 -1.27, GCAACUUUAUAGCAGAAUCTT against Apbb3 -0.874, GGGUGGUGUCUUCAAGUCATT against Nat3 0.129, GGUUUGCCUGCUGAUGACATT against Olfr883 -1.83, CCAUUCCAAAGGUAUUAGCTT against Olfr619 -0.244, GGAGAUCUGAAUGAAAAUUTT against Zfp280b -0.738, GGGAAAUUAUUACCAAAAGTT against N4bp1 -0.83, GGCUACGUUUUUGUAUUCUTT against Slc35d2 -0.31, GGAACUUUGUCUUUCAUACTT against Clspn 0.0704, CCGAAGUUAAGACAAAGAATT against Ankrd36 0.992, CCCAUUAUGGAGCUAGAAATT against Arid4b -0.846, GCUCAUGUGACUAUUGUUATT against Olfr1512 -0.0798, GGAACAUGUCGUAAAUAAGTT against Trim7 0.0785, GGAAAUUUUUCCCAGCUGGTT against Prl8a8 -0.169, GAACGCGCGAGAAAUGUGATT against Odf3b 0.573, GCCGUCUUUACAUUCCUGATT against Olfr605 0.8, CCAUUUAUCCUCUUUUCCGTT against Plekhb1 -1.83, CCCAGUGGUUUUAAAGCAUTT against Commd3 -1.64, GCCGAGGACCACAUUAAAGTT against Crtap 0.241, GGAACAACUUCGUACCAUGTT against Zbbx 0.865, GCCGUGAUCGACUUGAAUATT against U2af1 0.763, GGGAGACUAUCCUUGCUGGTT against Cryba2 -0.139, GGACAUCUGGGAAUACCUCTT against Actl7a 0.129, GCAGUUAAAUGGACUAUCATT against Paip2b 0.589, GGUGGGAAUGGGAAUCAGUTT against Akr1e1 0.334, GGUGAAACUGAAUAAAAUCTT against 4931406C07Rik -1.46, GGUGUUUUCACACUGGAAGTT against Ube2t 0.317, GGGUAUUAUCAAGGAGGAGTT against Bclaf1 0.304, GCAUACCCUAUUUAGUUUUTT against Gpr33 -0.00896, CCAGUGACGGUGUGAUCUUTT against Ccl26 0.426, CGUGGAUAGGUUUUUGUGGTT against 2510009E07Rik 0.51, GGUGAAUACUUCAGAUACATT against Sult2b1 -0.362, GGCUUGAGGCCUAUUUCAGTT against Sod3 0.524, GCCGUCAUCAUGGAAGGUUTT against Bace1 0.0589, CCACUCCCAUAAGGGCUAUTT against Smo -0.144, GAGAUUUACUCUGGACAUUTT against Hgsnat 0.72, UGUACUGAUACAUACUUCCTT against Olfr1249 -0.487, GGAAUCUUUGAGCUGGUGGTT against Mink1 -0.23, GCUGCUAAGUCGCACAUCUTT against Ppfibp2 1.32, GGCACUUCCAUGCUAAAUUTT against Gpt 1.29, CCAUAUGAUAUAGCAUGAGTT against Agtr2 -0.894, GGCCGUGAUGCUAGAGAACTT against Zfp661 0.131, GGAGAAGCUAAAAUGUGAGTT against Mboat7 -1.74, GGGAAACAUCUUCCUAUCCTT against Serpina12 -0.958, GGAACCACUUUAUUUGUCATT against Dclk1 1.59, GCGGGAAACUACGAUAGUCTT against Gykl1 -0.966, GGUUAUUAAAGCCUAUGGCTT against Grcc10 0.191, GGAAAUGUUCUUCAUGUCATT against 1110038F14Rik -1.95, GGAUUUCCUCAUGUGAUCUTT against Smad4 -0.478, CGGAGUUGAAGUUCAUUUATT against 2700097O09Rik 1.25, GGGAGAGUCUUUUUUUAAATT against Fndc3b -0.0889, GGUUGCUGUUUAGUUUUCATT against 1810030O07Rik 1.98, GGAAUAUGGACCAAGAGAGTT against Plcb2 -1.08, GCAAGAAUGCAAUUUCUUATT against Olfr904 -0.916, GUCUUUAGAGUCAUCCUCUTT against Olfr493 -1.38, GGUAGGAAUUUGGAAAACUTT against H2-T24 1.5, GCAUUAAACUGAUUAUCGATT against Chst15 -0.0941, GGAAGACAUAAAGCUCUGUTT against Olfr1242 0.322, GCAGAUUUUCUCCUGCAAGTT against Insm2 1.1, GGAUGAGCAGAAAUGUGUATT against Plekho2 0.931, GCCUCGUGUAUCACAGAAUTT against Map1s -1.09, GCGCAUUAGGAUAUAGACATT against 9530085L02Rik 0.491, UACGCUAAGGAAUAAGGACTT against Olfr110 0.102, GGUAGAGACCGCAUAGAAATT against Aqp8 2, GGAUUAUGCAAGUUACAUUTT against Nsf -0.63, CCCAUGACUAUCCAAACAATT against Kcnmb2 -1.52, GGAGUCACUCUGCUCUUUUTT against Kcnn1 -1.55, GGCCUCGAACAGUUUAUUATT against Snx12 0.471, CCAGACCUGUUGUAAAGACTT against Grn -1.29, GCCCAAAAUGUAAUCAACUTT against Paxbp1 0.146, GCGGAACUUUCAUUGCUGGTT against Rabggta 1.85, GGAGAGUGAUAUCAAGCCUTT against Lbr 1.33

z-score, active:
GAAAAGUGCACCAUCAGCCTT against Ly6g5b -2.27, GCUGAACGAUGACUAUCCCTT against Cryba4 2.2, GGACUUUACAAUAAAACAGTT against Dkk4 -2.2, GCCAAGGUGCAGAUAAGGUTT against Rhox7a 2.6, GGUCCAGGUCUGAAUCUAGTT against Tra2b 2.48
